Experiment in all cases: proximity labelling; TurboID: mTurbo-GFP-Piwi, -Aub or -Ago3 expressed in germline stem cell-like cells (bam-GLKD ovaries), flies fed 100 uM biotin; streptavidin pulldown, nanoLC-MS/MS with label-free quantification against the mTurbo-GFP control, biological duplicates
Assay [1] deals with T1, mTurbo-GFP-Aub (Drosophila melanogaster) (UniProt O76922).
T1 sequence: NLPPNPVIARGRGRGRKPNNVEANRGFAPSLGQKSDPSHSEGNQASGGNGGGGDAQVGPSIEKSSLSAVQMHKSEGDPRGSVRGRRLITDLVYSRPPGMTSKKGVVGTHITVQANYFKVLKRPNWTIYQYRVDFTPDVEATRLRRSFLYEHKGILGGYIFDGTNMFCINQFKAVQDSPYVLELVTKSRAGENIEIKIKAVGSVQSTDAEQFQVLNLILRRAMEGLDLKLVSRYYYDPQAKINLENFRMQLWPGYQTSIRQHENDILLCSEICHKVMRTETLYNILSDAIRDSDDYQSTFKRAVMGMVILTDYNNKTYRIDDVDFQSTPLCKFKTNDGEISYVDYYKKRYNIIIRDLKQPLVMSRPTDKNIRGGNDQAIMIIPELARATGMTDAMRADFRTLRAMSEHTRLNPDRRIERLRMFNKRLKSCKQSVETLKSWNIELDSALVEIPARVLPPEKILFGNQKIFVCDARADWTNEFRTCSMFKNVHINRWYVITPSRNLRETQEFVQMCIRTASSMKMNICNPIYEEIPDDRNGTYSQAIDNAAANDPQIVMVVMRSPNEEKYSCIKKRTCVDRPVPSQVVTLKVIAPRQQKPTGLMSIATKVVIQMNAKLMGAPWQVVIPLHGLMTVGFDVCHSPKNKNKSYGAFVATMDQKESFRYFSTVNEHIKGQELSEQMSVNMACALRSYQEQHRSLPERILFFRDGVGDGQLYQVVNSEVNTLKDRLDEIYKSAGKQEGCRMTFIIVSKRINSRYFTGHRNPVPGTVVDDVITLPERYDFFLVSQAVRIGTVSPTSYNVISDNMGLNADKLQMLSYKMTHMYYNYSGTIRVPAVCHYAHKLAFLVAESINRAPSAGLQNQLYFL

Chains of the proteins cited; added tags and fusions are not shown.
UniProt Q5LJZ2: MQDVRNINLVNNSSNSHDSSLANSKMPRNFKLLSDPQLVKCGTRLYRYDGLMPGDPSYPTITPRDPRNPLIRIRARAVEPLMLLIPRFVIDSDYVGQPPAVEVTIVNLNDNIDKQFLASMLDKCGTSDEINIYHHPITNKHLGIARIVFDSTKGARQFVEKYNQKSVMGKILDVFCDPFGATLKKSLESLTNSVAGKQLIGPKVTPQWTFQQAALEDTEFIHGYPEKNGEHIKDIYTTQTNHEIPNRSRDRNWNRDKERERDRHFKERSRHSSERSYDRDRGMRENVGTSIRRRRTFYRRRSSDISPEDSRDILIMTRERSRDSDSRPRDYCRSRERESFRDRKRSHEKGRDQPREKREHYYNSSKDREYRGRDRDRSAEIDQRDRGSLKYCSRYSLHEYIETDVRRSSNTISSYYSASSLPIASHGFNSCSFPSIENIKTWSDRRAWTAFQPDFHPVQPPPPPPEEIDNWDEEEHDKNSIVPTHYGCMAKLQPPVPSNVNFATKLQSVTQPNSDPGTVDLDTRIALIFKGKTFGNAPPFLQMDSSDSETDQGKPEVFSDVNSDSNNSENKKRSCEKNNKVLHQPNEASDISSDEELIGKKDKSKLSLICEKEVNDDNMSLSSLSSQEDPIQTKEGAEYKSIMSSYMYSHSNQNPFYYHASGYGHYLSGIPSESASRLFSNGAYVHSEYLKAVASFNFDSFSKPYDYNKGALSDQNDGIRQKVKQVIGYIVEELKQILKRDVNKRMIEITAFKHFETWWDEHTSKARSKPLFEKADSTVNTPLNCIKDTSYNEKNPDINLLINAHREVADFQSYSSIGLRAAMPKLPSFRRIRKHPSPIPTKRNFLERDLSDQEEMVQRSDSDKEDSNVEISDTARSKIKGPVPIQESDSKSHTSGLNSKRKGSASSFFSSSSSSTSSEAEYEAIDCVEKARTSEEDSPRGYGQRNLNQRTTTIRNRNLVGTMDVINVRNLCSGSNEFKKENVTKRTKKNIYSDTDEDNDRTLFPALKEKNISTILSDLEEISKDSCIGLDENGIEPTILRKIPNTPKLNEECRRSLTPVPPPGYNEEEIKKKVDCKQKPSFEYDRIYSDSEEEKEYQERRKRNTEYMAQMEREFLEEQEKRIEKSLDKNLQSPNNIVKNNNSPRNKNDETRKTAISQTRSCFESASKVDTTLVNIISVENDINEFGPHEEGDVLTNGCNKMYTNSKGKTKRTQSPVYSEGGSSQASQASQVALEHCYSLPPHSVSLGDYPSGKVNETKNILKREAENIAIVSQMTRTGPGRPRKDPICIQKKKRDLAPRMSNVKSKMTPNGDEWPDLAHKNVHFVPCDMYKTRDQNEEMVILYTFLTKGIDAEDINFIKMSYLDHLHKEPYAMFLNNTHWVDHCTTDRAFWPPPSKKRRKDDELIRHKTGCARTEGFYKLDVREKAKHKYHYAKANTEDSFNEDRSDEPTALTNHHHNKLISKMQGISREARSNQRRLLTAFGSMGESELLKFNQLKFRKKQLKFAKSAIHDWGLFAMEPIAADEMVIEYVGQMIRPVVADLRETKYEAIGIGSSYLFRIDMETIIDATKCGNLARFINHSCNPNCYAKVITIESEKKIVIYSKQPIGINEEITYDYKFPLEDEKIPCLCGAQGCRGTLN

For assay [2], the target named is T2, mTurbo-GFP-Ago3 (Drosophila melanogaster) (UniProt Q7PLK0).
T2 sequence: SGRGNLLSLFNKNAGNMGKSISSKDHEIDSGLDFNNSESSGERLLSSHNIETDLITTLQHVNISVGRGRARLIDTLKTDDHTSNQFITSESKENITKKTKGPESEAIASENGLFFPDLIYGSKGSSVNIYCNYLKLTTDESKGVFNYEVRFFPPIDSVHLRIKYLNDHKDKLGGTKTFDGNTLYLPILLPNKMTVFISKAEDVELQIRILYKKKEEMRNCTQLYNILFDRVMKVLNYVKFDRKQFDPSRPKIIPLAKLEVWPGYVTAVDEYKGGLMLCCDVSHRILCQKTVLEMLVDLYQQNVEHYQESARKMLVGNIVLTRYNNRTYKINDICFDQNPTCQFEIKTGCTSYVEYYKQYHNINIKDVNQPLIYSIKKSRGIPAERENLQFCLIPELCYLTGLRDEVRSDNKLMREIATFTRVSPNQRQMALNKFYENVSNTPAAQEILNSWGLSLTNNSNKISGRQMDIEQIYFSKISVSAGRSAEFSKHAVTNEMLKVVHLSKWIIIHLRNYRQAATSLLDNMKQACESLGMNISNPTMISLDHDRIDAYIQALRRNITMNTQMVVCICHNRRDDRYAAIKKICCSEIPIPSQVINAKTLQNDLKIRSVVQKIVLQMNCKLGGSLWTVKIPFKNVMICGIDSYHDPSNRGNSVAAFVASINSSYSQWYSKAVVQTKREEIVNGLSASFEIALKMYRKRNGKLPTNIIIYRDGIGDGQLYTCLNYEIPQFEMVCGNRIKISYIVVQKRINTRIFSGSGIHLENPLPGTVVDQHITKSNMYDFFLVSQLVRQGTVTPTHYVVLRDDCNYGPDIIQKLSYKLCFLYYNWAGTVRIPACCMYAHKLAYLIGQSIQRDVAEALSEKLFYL

In assay [3] the target is T3, mTurbo-GFP-Piwi (Drosophila melanogaster) (UniProt Q9VKM1).
T3 sequence: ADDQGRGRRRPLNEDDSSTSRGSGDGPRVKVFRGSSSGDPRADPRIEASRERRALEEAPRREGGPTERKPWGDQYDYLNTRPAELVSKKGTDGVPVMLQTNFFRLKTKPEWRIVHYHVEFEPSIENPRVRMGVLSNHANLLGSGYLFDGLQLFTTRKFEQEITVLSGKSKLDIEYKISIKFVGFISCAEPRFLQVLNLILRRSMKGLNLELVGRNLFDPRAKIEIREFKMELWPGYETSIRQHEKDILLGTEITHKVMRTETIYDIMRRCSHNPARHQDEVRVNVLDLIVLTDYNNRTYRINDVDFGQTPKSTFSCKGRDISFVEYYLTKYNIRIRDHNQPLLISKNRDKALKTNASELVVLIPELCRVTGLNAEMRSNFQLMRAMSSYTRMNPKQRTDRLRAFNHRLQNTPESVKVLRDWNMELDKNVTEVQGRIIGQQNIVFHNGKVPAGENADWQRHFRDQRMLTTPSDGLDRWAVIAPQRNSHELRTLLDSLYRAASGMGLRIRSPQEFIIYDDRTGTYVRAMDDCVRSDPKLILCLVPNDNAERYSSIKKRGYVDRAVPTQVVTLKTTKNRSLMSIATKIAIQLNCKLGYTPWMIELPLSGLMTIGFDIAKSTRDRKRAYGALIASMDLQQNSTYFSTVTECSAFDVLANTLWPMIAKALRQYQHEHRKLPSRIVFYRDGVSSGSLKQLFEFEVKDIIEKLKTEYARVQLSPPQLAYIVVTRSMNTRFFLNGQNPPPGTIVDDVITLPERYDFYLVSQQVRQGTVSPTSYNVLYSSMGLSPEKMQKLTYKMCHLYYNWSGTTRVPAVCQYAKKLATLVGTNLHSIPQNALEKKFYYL

No constants are given. Whether binding was seen depends on the method and setting. In cells and extracts the contact can be indirect. Here binding means that the protein was enriched with, or labelled near, the bait; the list need not be complete. For part of these data: No binding means not detected with the bait. Where a sequence is shown, tags or fusion partners need not be part of it.

With Bootlegger, the binding result is recorded as “no binding” in assay [1] and “binds” in assay [2].

Turning to Set1 (from UniProt Q5LJZ2 1-1641), the binding result in assay [3] was “binds”.

B1: Hrb27C (protein, UniProt P48809 1-421)
chain: MEEDERGKLFVGGLSWETTQENLSRYFCRFGDIIDCVVMKNNESGRSRGFGFVTFADPTNVNHVLQNGPHTLDGRTIDPKPCNPRTLQKPKKGGGYKVFLGGLPSNVTETDLRTFFNRYGKVTEVVIMYDQEKKKSRGFGFLSFEEESSVEHVTNERYINLNGKQVEIKKAEPRDGSGGQNSNNSTVGGAYGKLGNECSHWGPHHAPINMMQGQNGQMGGPPLNMPIGAPNMMPGYQGWGTSPQQQQYGYGNSGPGSYQGWGAPPGPQGPPPQWSNYAGPQQTQGYGGYDMYNSTSTGAPSGPSGGGSWNSWNMPPNSAGPTGAPGAGAGTATDMYSRAQAWATGGPSTTGPVGGMPRTGPGNSASKSGSEYDYGGYGSGYDYDYSNYVKQEGASNYGAGPRSAYGNDSSTQPPYATSQAV
Turning to B1, in assay [1], the binding result is recorded as “binds”.

B2: Zucchini (protein, UniProt Q9VKD7 1-253)
chain: MLITQIIMKQIRDYPIVSTISIAVSTVLASEVIWKLVQCSRSKREKASRVHEVIIFNELGEICAAVHMRNSSMGSQKPQVSPCCNTHCSLRNVAKIVEQIDRAVYSIDLAIYTFTSLFLADSIKRALQRGVIIRIISDGEMVYSKGSQISMLAQLGVPVRVPITTNLMHNKFCIIDGFERVEEIRLLRKLKFMRPCYSIVISGSVNWTALGLGGNWENCIITADDKLTATFQAEFQRMWRAFAKTEGSQIQLK
As to B2, the binding result in assay [3] and in assay [1] was “binds” in each case.

For the origin of these results see PMC13650161.
